Here are results for 1 molecule from the supplement of paper PMC8728848.

This is one part of the list.

Holding throughout (assay): glycan array binding signal (z-score within array); higher = stronger binding
Details in all cases: glycan notation: IUPAC condensed, linker removed

For test [1], the target named is Gal(b1-4)GlcNAc(b1-3)Gal(b1-3)GalNAc. In short, it runs like this:
(§1)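 Glycan array data were curated from 3228 arrays in the Consortium for Functional Glycomics database and kept only where the protein sequence was available. Glycan names were converted to IUPAC-condensed notation, and columns mapping to the same glycan were averaged. The binding signal is a within-array Z-score, averaged across arrays of the same protein sequence at different concentrations or buffers and across linkers. Negative Z-scores can be read as non-binding.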

For test [2], the target named is Gal(b1-4)GlcNAc(b1-3)Gal(b1-3)GlcNAc. In outline: as §1
For test [3], the target named is Gal(b1-4)GlcNAc(b1-3)Gal(b1-4)Glc. In outline:
as §1

Test [4] addresses Gal(b1-4)GlcNAc(b1-3)Gal(b1-4)GlcNAc. In outline: as §1
Test [5] concerns the target Gal(b1-4)GlcNAc(b1-3)Gal(b1-4)GlcNAc(b1-2)Man(a1-3)[Gal(b1-4)GlcNAc(b1-3)Gal(b1-4)GlcNAc(b1-2)Man(a1-6)]Man(b1-4)GlcNAc(b1-4)GlcNAc. In short, it runs like this:
as §1

Test [6] addresses Gal(b1-4)GlcNAc(b1-3)Gal(b1-4)GlcNAc(b1-2)Man(a1-3)[Gal(b1-4)GlcNAc(b1-3)Gal(b1-4)GlcNAc(b1-2)Man(a1-6)]Man(b1-4)GlcNAc(b1-4)[Fuc(a1-6)]GlcNAc. In outline: as §1
The target of test [7] is Gal(b1-4)GlcNAc(b1-3)Gal(b1-4)GlcNAc(b1-2)[Gal(b1-4)GlcNAc(b1-3)Gal(b1-4)GlcNAc(b1-6)]Man(a1-6)[Gal(b1-4)GlcNAc(b1-3)Gal(b1-4)GlcNAc(b1-2)Man(a1-3)]Man(b1-4)GlcNAc(b1-4)GlcNAc. In short, it runs like this:
as §1

Test [8] concerns the target Gal(b1-4)GlcNAc(b1-3)Gal(b1-4)GlcNAc(b1-2)[Gal(b1-4)GlcNAc(b1-3)Gal(b1-4)GlcNAc(b1-6)]Man(a1-6)[Gal(b1-4)GlcNAc(b1-3)Gal(b1-4)GlcNAc(b1-2)Man(a1-3)]Man(b1-4)GlcNAc(b1-4)[Fuc(a1-6)]GlcNAc. In short, it runs like this:
as §1

The target of test [9] is Gal(b1-4)GlcNAc(b1-3)Gal(b1-4)GlcNAc(b1-3)Gal(b1-4)GlcNAc. In short, it runs like this:
as §1

The target of test [10] is Gal(b1-4)GlcNAc(b1-3)Gal(b1-4)GlcNAc(b1-3)Gal(b1-4)GlcNAc(b1-2)Man(a1-3)[Gal(b1-4)GlcNAc(b1-3)Gal(b1-4)GlcNAc(b1-3)Gal(b1-4)GlcNAc(b1-2)Man(a1-6)]Man(b1-4)GlcNAc(b1-4)GlcNAc. In outline:
as §1

Test [11] deals with Gal(b1-4)GlcNAc(b1-3)Gal(b1-4)GlcNAc(b1-3)Gal(b1-4)GlcNAc(b1-2)Man(a1-3)[Gal(b1-4)GlcNAc(b1-3)Gal(b1-4)GlcNAc(b1-3)Gal(b1-4)GlcNAc(b1-2)Man(a1-6)]Man(b1-4)GlcNAc(b1-4)[Fuc(a1-6)]GlcNAc. In outline: as §1
The target in test [12] is Gal(b1-4)GlcNAc(b1-3)Gal(b1-4)GlcNAc(b1-3)Gal(b1-4)GlcNAc(b1-2)[Gal(b1-4)GlcNAc(b1-3)Gal(b1-4)GlcNAc(b1-3)Gal(b1-4)GlcNAc(b1-6)]Man(a1-6)[Gal(b1-4)GlcNAc(b1-3)Gal(b1-4)GlcNAc(b1-3)Gal(b1-4)GlcNAc(b1-2)Man(a1-3)]Man(b1-4)GlcNAc(b1-4)[Fuc(a1-6)]GlcNAc. In outline:
as §1

Test [13] concerns the target Gal(b1-4)GlcNAc(b1-3)Gal(b1-4)GlcNAc(b1-3)Gal(b1-4)GlcNAc(b1-3)Gal(b1-4)GlcNAc(b1-2)Man(a1-3)[Gal(b1-4)GlcNAc(b1-3)Gal(b1-4)GlcNAc(b1-3)Gal(b1-4)GlcNAc(b1-3)Gal(b1-4)GlcNAc(b1-2)Man(a1-6)]Man(b1-4)GlcNAc(b1-4)GlcNAc. In outline:
as §1

For test [14], the target named is Gal(b1-4)GlcNAc(b1-3)Gal(b1-4)GlcNAc(b1-3)Gal(b1-4)GlcNAc(b1-3)Gal(b1-4)GlcNAc(b1-2)Man(a1-3)[Gal(b1-4)GlcNAc(b1-3)Gal(b1-4)GlcNAc(b1-3)Gal(b1-4)GlcNAc(b1-3)Gal(b1-4)GlcNAc(b1-2)Man(a1-6)]Man(b1-4)GlcNAc(b1-4)[Fuc(a1-6)]GlcNAc. In outline: as §1
For test [15], the target named is Gal(b1-4)GlcNAc(b1-3)Gal(b1-4)GlcNAc(b1-3)Gal(b1-4)GlcNAc(b1-3)Gal(b1-4)GlcNAc(b1-2)[Gal(b1-4)GlcNAc(b1-3)Gal(b1-4)GlcNAc(b1-3)Gal(b1-4)GlcNAc(b1-3)Gal(b1-4)GlcNAc(b1-6)]Man(a1-6)[Gal(b1-4)GlcNAc(b1-3)Gal(b1-4)GlcNAc(b1-3)Gal(b1-4)GlcNAc(b1-3)Gal(b1-4)GlcNAc(b1-2)Man(a1-3)]Man(b1-4)GlcNAc(b1-4)[Fuc(a1-6)]GlcNAc. In outline: as §1
Test [16] addresses Gal(b1-4)GlcNAc(b1-3)Gal(b1-4)GlcNAc(b1-3)Gal(b1-4)GlcNAc(b1-3)Gal(b1-4)GlcNAc(b1-3)Gal(b1-4)GlcNAc(b1-2)Man(a1-3)[Gal(b1-4)GlcNAc(b1-3)Gal(b1-4)GlcNAc(b1-3)Gal(b1-4)GlcNAc(b1-3)Gal(b1-4)GlcNAc(b1-3)Gal(b1-4)GlcNAc(b1-2)Man(a1-6)]Man(b1-4)GlcNAc(b1-4)GlcNAc. In outline:
as §1

Test [17] concerns the target Gal(b1-4)GlcNAc(b1-3)Gal(b1-4)GlcNAc(b1-3)Gal(b1-4)GlcNAc(b1-3)Gal(b1-4)GlcNAc(b1-3)Gal(b1-4)GlcNAc(b1-2)Man(a1-3)[Gal(b1-4)GlcNAc(b1-3)Gal(b1-4)GlcNAc(b1-3)Gal(b1-4)GlcNAc(b1-3)Gal(b1-4)GlcNAc(b1-3)Gal(b1-4)GlcNAc(b1-2)Man(a1-6)]Man(b1-4)GlcNAc(b1-4)[Fuc(a1-6)]GlcNAc. In outline:
as §1

For test [18], the target named is Gal(b1-4)GlcNAc(b1-3)Gal(b1-4)GlcNAc(b1-3)Gal(b1-4)GlcNAc(b1-3)Gal(b1-4)GlcNAc(b1-3)Gal(b1-4)GlcNAc(b1-2)[Gal(b1-4)GlcNAc(b1-3)Gal(b1-4)GlcNAc(b1-3)Gal(b1-4)GlcNAc(b1-3)Gal(b1-4)GlcNAc(b1-3)Gal(b1-4)GlcNAc(b1-6)]Man(a1-6)[Gal(b1-4)GlcNAc(b1-3)Gal(b1-4)GlcNAc(b1-3)Gal(b1-4)GlcNAc(b1-3)Gal(b1-4)GlcNAc(b1-3)Gal(b1-4)GlcNAc(b1-2)Man(a1-3)]Man(b1-4)GlcNAc(b1-4)[Fuc(a1-6)]GlcNAc. In outline:
as §1

For test [19], the target named is Gal(b1-4)GlcNAc(b1-3)Gal(b1-4)GlcNAc(b1-3)Gal(b1-4)GlcNAc(b1-3)Gal(b1-4)GlcNAc(b1-3)Gal(b1-4)GlcNAc(b1-3)Gal(b1-4)GlcNAc(b1-2)Man(a1-3)[Gal(b1-4)GlcNAc(b1-3)Gal(b1-4)GlcNAc(b1-3)Gal(b1-4)GlcNAc(b1-3)Gal(b1-4)GlcNAc(b1-3)Gal(b1-4)GlcNAc(b1-3)Gal(b1-4)GlcNAc(b1-2)Man(a1-6)]Man(b1-4)GlcNAc(b1-4)GlcNAc. In short, it runs like this:
as §1

For test [20], the target named is Gal(b1-4)GlcNAc(b1-3)Gal(b1-4)GlcNAc(b1-3)GalNAc. In short, it runs like this:
as §1

For test [21], the target named is Gal(b1-4)GlcNAc(b1-3)Gal(b1-4)GlcNAc(b1-3)[Gal(b1-4)GlcNAc(b1-3)Gal(b1-4)GlcNAc(b1-6)]GalNAc. In short, it runs like this:
as §1

Test [22] addresses Gal(b1-4)GlcNAc(b1-3)Gal(b1-4)GlcNAc(b1-6)[Gal(b1-3)]GalNAc. In outline: as §1
Test [23] deals with Gal(b1-4)GlcNAc(b1-3)Gal(b1-4)[Fuc(a1-3)GlcNAc(b1-6)]Gal(b1-4)Glc. In short, it runs like this:
as §1

B1: CRT-1 (Homo sapiens), P27797 (protein)
chain: MLLSVPLLLGLLGLAVAEPAVYFKEQFLDGDGWTSRWIESKHKSDFGKFVLSSGKFYGDEEKDKGLQTSQDARFYALSASFEPFSNKGQTLVVQFTVKHEQNIDCGGGYVKLFPNSLDQTDMHGDSEYNIMFGPDICGPGTKKVHVIFNYKGKNVLINKDIRCKDDEFTHLYTLIVRPDNTYEVKIDNSQVESGSLEDDWDFLPPKKIKDPDASKPEDWDERAKIDDPTDSKPEDWDKPEHIPDPDAKKPEDWDEEMDGEWEPPVIQNPEYKGEWKPRQIDNPDYKGTWIHPEIDNPEYSPDPSIYAYDNFGVLGLDLWQVKSGTIFDNFLITNDEAYAEEFGNETWGVTKAAEKQMKDKQDEEQRLKEEEEDKKRKEEEEAEDKEDDEDKDEDEEDEEDKEEDEEEDVPGQAKDEL
For the molecule B1, the “glycan array binding signal (z-score)” value in [1] was 0.06; in test [2], -0.342; in test [3], -0.209; in [4], -0.647; in test [5], 0.311; in test [6], 1.25. In addition, the “glycan array binding signal (z-score)” value in test [7] is 0.691; in test [8], 0.692; in test [9], -0.248; in [10] it was 0.99; in test [11] it was 0.162; in [12], 1.1. Further, the “glycan array binding signal (z-score)” value is -0.033 in test [13]; 1.79 in [14]; 1.03 in test [15]; 1.75 in test [16]; 1.32 in test [17]; 1.36 in test [18]. Also, the “glycan array binding signal (z-score)” value in test [19] is 0.789; in [20], 0.352; in [21], 0.711; in test [22], 0.617; in [23], -0.331.
